Source: PubChem BioAssay AID624297 (National Center for Advancing Translational Sciences (NCATS), 2012)
“And” between values parts separate entries of the source, which are not always exact repeats. Identical values can stand only once. Out of some 340,000 compounds screened, about 6,200 (1.8%) were called active. Inconclusive means that the source gave no clear call. Such entries were picked first, then a sample of the others. Calls come from the whole dose curve; as a rule, active = well fitted activation curve with a large enough effect; inconclusive = small, poorly fitted or top-dose-only effect; inactive = no such curve, though single readings can be large or run the other way. A potency beside an inconclusive call is a rough fit, not a confirmed value.

Test: A quantitative high throughput screen for small molecules that induce DNA re-replication in SW480 colon adenocarcinoma cells. Note: nearly all actives have a fitted effect of over 55% in size.
Conditions: Hoechst DNA content imaging, 48 h; series mostly up to 46.1 µM
Outline: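 250 cells/well; 23 nL cpd via pin tool; 48 hr, 37 C, 5% CO2; Hoechst 40 min; imager read of total nuclear intensity, ex 405/em 500-530 nm.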
Potency is the fitted concentration of half-maximal effect.

Q: Which Potency does the source give for `CCn1c(O)c(N=Nc2ccc(S(=O)(=O)N3CCOCC3)cc2)c(=O)n(CC)c1=S` here?
A: The Potency was inconclusive: 7.31 µM [activator, partial curve].

Q: With `COc1ccc(Cn2c(N)c(C(=O)NCc3ccco3)c3nc4ccccc4nc32)cc1` as the compound, how does the Potency read?
A: The Potency was active: 2.31 µM.

Q: With `O=[N+]([O-])c1ccc(N2CCNCC2)cc1NCc1ccco1` as the compound, how does the Potency read?
A: Its Potency is “inactive”.

Q: For `O=c1[nH]c(=S)n(CCC2=CCCCC2)c(O)c1/C=N/N1CCOCC1`, which Potency is on record?
A: Its Potency is inconclusive: 29.1 µM [activator, single point].

Q: Which Potency does the source give for `CCN(CC)CCCN=C(C)c1c(O)n(-c2ccc(C)cc2)c(=O)[nH]c1=O` here?
A: The Potency was inconclusive: 29.1 µM [activator, single point].

Q: For `O=C(O)CCCc1ccc(N(CCCl)CCCl)cc1`, which Potency is on record?
A: Its Potency is inconclusive: 21.1 µM [activator, partial curve, poor fit] and inconclusive: 29.1 µM [activator, single point].

Q: For `COCCO[C@H]1CCC2C3CC=C4C[C@@H](O)CC[C@]4(C)C3CC[C@@]21C` (some centres not stated), which Potency is on record?
A: Its Potency is inconclusive: 16.4 µM [activator, single point].

Q: For `Cc1c(CC(=O)N2C[C@H]3C[C@@H](C2)c2cccc(=O)n2C3)c(=O)oc2cc(O)c(Cl)cc12`, which Potency is on record?
A: The Potency was inconclusive: 29.1 µM [activator, single point].

Q: With `Cc1ccc(S(=O)(=O)c2nc(-c3ccccc3Cl)oc2N(C)C2CCN(C)CC2)cc1` as the compound, how does the Potency read?
A: The Potency was inconclusive: 20.6 µM [activator, single point].

Q: With `CC(C)CCCn1c(O)c(/C=C2/C=CC=N2)c(=O)[nH]c1=O` as the compound, how does the Potency read?
A: The Potency was active: 13 µM.

Q: For `Cc1ccc(N2C(=O)NC(=O)/C(=C\C=C\c3ccco3)C2=O)cc1C`, which Potency is on record?
A: Its Potency is inconclusive: 14.6 µM [activator, partial curve, poor fit].

Q: For `Cc1ccc(OP(=O)(NCc2ccccc2)Oc2ccc(C)cc2)cc1`, which Potency is on record?
A: The Potency was inconclusive: 29.1 µM [activator, partial curve, poor fit].

Q: Which Potency does the source give for `O=C(CSc1ncnc2c1nnn2-c1ccc(F)cc1)NCC1CCCO1` (configuration not stated) here?
A: Its Potency is inconclusive: 29.1 µM [activator, partial curve, poor fit].

Q: Which Potency does the source give for `O=C1c2ccccc2C(=O)N1SC1CCCCC1` here?
A: Its Potency is inconclusive: 32.6 µM [activator, partial curve, poor fit].

Q: Which Potency does the source give for `Nc1ccncc1` here?
A: Its Potency is inconclusive: 6.31 µM [activator, single point].

Q: With `C[N+]1(C)CCOC(O)(c2ccc(-c3ccc(C4(O)C[N+](C)(C)CCO4)cc3)cc2)C1` (configuration not stated) as the compound, how does the Potency read?
A: Its Potency is inconclusive: 23.1 µM [activator, single point].

Q: Which Potency does the source give for `C[C@@H]1O[C@H](O[C@@H]2C=C3CC[C@H]4[C@@H](CC[C@]5(C)[C@@H](c6ccc(=O)oc6)CC[C@]45O)[C@@]3(C)CC2)[C@@H](O)[C@H](O)[C@@H]1O` here?
A: The Potency was inconclusive: 0.508 µM [activator, full curve, poor fit].
